Data as given in PubChem BioAssay AID686938 (Drosophila RNAi Screening Center, 2013).
Screen: 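Looking for CRAC channel components and the factors controlling them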 (primary screen). Cell system: Drosophila S2R+ cells. Reagent: long dsRNA against Drosophila genes, about 0.25 µg dsRNA per well, roughly 10,000 cells. Duration: 5 days of knock-down before the calcium assay. Challenge: thapsigargin (SERCA pump blocker) to empty calcium stores; entry signal taken 4 min after adding it. Measurement: 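Duplicate raw fluo-4 intensities per well from a plate reader, at rest and four minutes after thapsigargin emptied calcium stores; entry-to-rest ratio filled for only some wells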. Direction: calcium entry signal: higher = stronger calcium signal after store depletion; resting calcium signal: higher = higher resting calcium signal. Active means: 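Called when the plate z-score of the entry-to-rest ratio, mean of duplicates, falls below −3; wells with low overall dye signal (Fmax z below −2) or more than five off-targets excluded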. Calls: active = strongly reduced calcium entry; inactive = no strong reduction.
The screen tested about 23,000 reagents; this is an unselected part of those with a known target gene and a result. Over the whole deposit, 75 (0.33%) got an active call. 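Raw plate signals without normalisation; calls rest on plate z-scores that were not deposited; ratio present for only 364 wells.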 A plus sign joins genes that one reagent is predicted to hit. Reagent sequences are not shown. The record does not give: the dose of the treatment.

calcium entry signal, replicate 1 (fluorescence units) | calcium entry signal, replicate 2 (fluorescence units) | resting calcium signal, replicate 1 (fluorescence units) | resting calcium signal, replicate 2 (fluorescence units) | call | target gene | dsRNA
2.57e7 | 3.47e7 | 1.22e7 | 1.52e7 | inactive | CG32459 | DRSC11852
3.49e7 | 5.23e7 | 1.59e7 | 2.37e7 | inactive | CG7386 | DRSC10832
4.68e7 | 4.70e7 | 2.11e7 | 2.05e7 | inactive | ERp44 | DRSC20215
3.14e7 | 3.83e7 | 1.90e7 | 1.74e7 | inactive | CG41520 | DRSC21102
5.42e7 | 5.35e7 | 2.37e7 | 2.07e7 | inactive | CG41520 | DRSC21103
2.74e7 | 2.57e7 | 1.28e7 | 1.45e7 | inactive | NT5E-2 | DRSC06893
3.13e7 | 2.60e7 | 1.52e7 | 1.21e7 | inactive | IFT52 | DRSC03271
3.81e7 | 4.85e7 | 2.06e7 | 2.17e7 | inactive | CG5151 | DRSC10487
5.03e7 | 3.32e7 | 2.43e7 | 1.46e7 | inactive | CG5151 | DRSC23220
3.18e7 | 5.61e7 | 1.60e7 | 2.28e7 | inactive | CG7841 | DRSC10922
4.35e7 | – | 2.12e7 | – | inactive | eIF2Bdelta | DRSC04058
2.90e7 | 6.74e7 | 1.46e7 | 2.83e7 | inactive | CG42566 | DRSC03949
2.94e7 | 2.87e7 | 1.45e7 | 1.41e7 | inactive | BG642163 | DRSC00342
2.92e7 | 2.83e7 | 1.38e7 | 1.38e7 | inactive | BG642163 | DRSC00343
2.96e7 | 4.17e7 | 1.47e7 | 1.92e7 | inactive | Pfdn4 | DRSC09761
4.52e7 | 4.06e7 | 2.06e7 | 1.97e7 | inactive | edl | DRSC06516
4.25e7 | 2.95e7 | 2.10e7 | 1.41e7 | inactive | CG4462 | DRSC15583
4.66e7 | 3.82e7 | 2.09e7 | 1.88e7 | inactive | CG33232 (retired record) | DRSC08187
4.50e7 | 5.40e7 | 2.19e7 | 2.14e7 | inactive | CG33232 (retired record) | DRSC08495
4.02e7 | 3.57e7 | 1.96e7 | 1.60e7 | inactive | RabX6 | DRSC08223
3.15e7 | 2.73e7 | 1.38e7 | 1.38e7 | inactive | Myd88 | DRSC06815
2.51e7 | 3.19e7 | 1.28e7 | 1.44e7 | inactive | CG15375 | DRSC18045
2.28e7 | 2.60e7 | 1.13e7 | 1.19e7 | inactive | CG10654 | DRSC09767
4.08e7 | 3.44e7 | 1.95e7 | 1.64e7 | inactive | CG9117 | DRSC03141
3.12e7 | 3.91e7 | 1.57e7 | 1.52e7 | inactive | CG12521 | DRSC09893
3.22e7 | 3.29e7 | 3.20e7 | 1.49e7 | inactive | CG17298 | DRSC15221
4.36e7 | 4.49e7 | 2.16e7 | 2.02e7 | inactive | CR43087 + CR43086 + CG34002 | DRSC11953
2.04e7 | 2.35e7 | 1.06e7 | 1.25e7 | inactive | CG12942 | DRSC06253
2.84e7 | 3.54e7 | 1.58e7 | 1.81e7 | inactive | Rab21 | DRSC20968
5.08e7 | 5.62e7 | 2.48e7 | 2.57e7 | inactive | Hs3st-B | DRSC20067
4.04e7 | 3.28e7 | 1.81e7 | 1.65e7 | inactive | CG34315 + Orc3 | DRSC07642
5.08e7 | 4.69e7 | 2.26e7 | 2.48e7 | inactive | asRNA:CR43430 + hts | DRSC07629
2.94e7 | 2.70e7 | 1.52e7 | 1.22e7 | inactive | CG4676 | DRSC06879
3.27e7 | 4.88e7 | 1.65e7 | 2.07e7 | inactive | c11.1 | DRSC18749
3.04e7 | 3.40e7 | 1.45e7 | 1.53e7 | inactive | Npc2f | DRSC15980
6.66e7 | 4.10e7 | 3.37e7 | 1.87e7 | inactive | CG34347 | DRSC14047
4.11e7 | 4.51e7 | 2.19e7 | 2.17e7 | inactive | CG34347 | DRSC14305
4.05e7 | 3.23e7 | 2.01e7 | 1.51e7 | inactive | CG34347 | DRSC15104
4.55e7 | 2.28e7 | 2.16e7 | 1.39e7 | inactive | CG34347 | DRSC15105
3.73e7 | 3.32e7 | 1.88e7 | 1.59e7 | inactive | CG34347 | DRSC23044
